The results in this text go back to patent US20130045191A1 (IMMATICS BIOTECHNOLOGIES, published 2013).

These are yes or no findings as the source states them, for the method shown. In cells and extracts the contact can be indirect. Binding can be weak; no strength is given.

The target in the assay is T1, HLA A*024 (human).
T1 construct: also called HLA A*024 alleles; HLA-A*24
Description: HLA immunoprecipitation from tumour tissue, LC-MS (Example 1).

B1: COL12A1-001 (peptide)
peptide: VYNPTPNSL
As for B1, the binding result is “binds”.

B2: KIF2C-001 (peptide)
peptide: IYNGKLFDLL
Turning to B2, the binding result was “binds”.

B3: ZNF598-001 (peptide)
peptide: DYAYLREHF
For the molecule B3, the binding result was “binds”.

B4: POLD3-001 (peptide)
peptide: LYLENIDEF
For B4, the binding result is given as “binds”.

B5: FANCI-001 (peptide)
peptide: FYQPKIQQF
With B5, the binding entry is “binds”.

B6: PBK-001 (peptide)
peptide: SYQKVIELF
On to B6, for which the binding entry is listed as “binds”.

B7: UQCRB-001 (peptide)
peptide: YYNAAGFNKL
As for B7, the binding result is “binds”.

B8: PLK4-001 (peptide)
peptide: QYASRFVQL
With B8, the binding result is “binds”.

B9: CCND2-001 (peptide)
peptide: RYLPQCSYF
As for B9, the binding entry is listed as “binds”.

B10: NFYB-001 (peptide)
peptide: VYTTSYQQI
B10: the binding result was “binds”.

B11: LCN2-001 (peptide)
peptide: SYNVTSVLF
Consider B11, for which the binding result was “binds”.

B12: ABL1-001 (peptide)
peptide: TYGNLLDYL
For the molecule B12, the binding entry is “binds”.

B13: GPR39-001 (peptide)
peptide: SYATLLHVL
For B13, the binding result is on record as “binds”.

B14: ATAD2-001 (peptide)
peptide: AYAIIKEEL
On to B14, for which the binding result is on record as “binds”.

B15: CEA-010 (peptide)
peptide: IYPDASLLI
In the case of B15, the binding entry is listed as “binds”.

B16: COL6A3-001 (peptide)
peptide: SYLQAANAL
Consider B16, for which the binding result is given as “binds”.

B17: DNAJC10-001 (peptide)
peptide: IYLEVIHNL
As for B17, the binding entry is given as “binds”.

B18: ITGB4-001 (peptide)
peptide: DYTIGFGKF
For B18, the binding result was “binds”.

B19: AVL9-001 (peptide)
peptide: FYISPVNKL
Regarding B19, the binding result was “binds”.

B20: MMP11-001 (peptide)
peptide: VWSDVTPLTF
B20: the binding result is “binds”.

B21: PROM1-001 (peptide)
peptide: SYIIDPLNL
Consider B21, for which the binding entry was “binds”.

B22: EIF3L-001 (peptide)
peptide: YYYVGFAYL
For the molecule B22, the binding result was “binds”.

B23: MET-006 (peptide)
peptide: SYIDVLPEF
Regarding B23, the binding result is “binds”.

B24: ATAD2-003 (peptide)
peptide: LYPEVFEKF
Regarding B24, the binding entry is on record as “binds”.

B25: MST1R-001 (peptide)
peptide: NYLLYVSNF
On to B25, for which the binding result is “binds”.

B26: MUC6-001 (peptide)
peptide: NYEETFPHI
For the molecule B26, the binding entry is “binds”.

B27: SIAH2-001 (peptide)
peptide: VFDTAIAHLF
On to B27, for which the binding result was “binds”.

B28: MMP3-001 (peptide)
peptide: VFIFKGNQF
As for B28, the binding entry was “binds”.

B29: CCDC88A-001 (peptide)
peptide: QYIDKLNEL
Regarding B29, the binding entry is given as “binds”.

B30: HSP90B1-001 (peptide)
peptide: KYNDTFWKEF
On to B30, for which the binding result was “binds”.

B31: NUF2-001 (peptide)
peptide: VYGIRLEHF
Turning to B31, the binding result is on record as “binds”.

B32: ERBB3-001 (peptide)
peptide: VYIEKNDKL
In the case of B32, the binding entry is recorded as “binds”.

B33: CCNE2-001 (peptide)
peptide: IYAPKLQEF
For the molecule B33, the binding entry is “binds”.

B34: ASPM-001 (peptide)
peptide: RYLWATVTI
On to B34, for which the binding entry was “binds”.

B35: RPS11-001 (peptide)
peptide: YYKNIGLGF
As for B35, the binding entry is “binds”.

B36: CCNB1-003 (peptide)
peptide: MYMTVSIIDRF
For B36, the binding result was “binds”.

B37: EPPK1-001 (peptide)
peptide: RYLEGTSCI
As for B37, the binding entry is reported as “binds”.

B38: SLC6A6-001 (peptide)
peptide: VYPNWAIGL
As for B38, the binding result is “binds”.

B39: SMC4-001 (peptide)
peptide: HYKPTPLYF
B39: the binding result is given as “binds”.

B40: ASPM-002 (peptide)
peptide: SYNPLWLRI
On to B40, for which the binding result was “binds”.

B41: DNAJC10-002 (peptide)
peptide: AYPTVKFYF
B41: the binding entry is listed as “binds”.

B42: EIF2S3-001 (peptide)
peptide: IFSKIVSLF
In the case of B42, the binding result is “binds”.

B43: UCHL5-001 (peptide)
peptide: NYLPFIMEL
Consider B43, for which the binding entry was “binds”.

B44: TSPAN1-002 (peptide)
peptide: VYTTMAEHF
For B44, the binding entry is reported as “binds”.

B45: EPHA2-005 (peptide)
peptide: VYFSKSEQL
As to B45, the binding result was “binds”.

B46: NUF2-002 (peptide)
peptide: RFLSGIINF
Take B46: the binding result is listed as “binds”.

B47: PPAP2C-001 (peptide)
peptide: AYLVYTDRL
Turning to B47, the binding entry is “binds”.

B48: IQGAP3-001 (peptide)
peptide: VYKVVGNLL
Take B48: the binding result is on record as “binds”.

B49: ATAD2-002 (peptide)
peptide: KYLTVKDYL
With B49, the binding entry is on record as “binds”.

B50: CLCN3-001 (peptide)
peptide: VYLLNSTTL
For the molecule B50, the binding entry was “binds”.

B51: SDHC-001 (peptide)
peptide: SYLELVKSL
Regarding B51, the binding result was “binds”.
